Laboratory results as given in PMC6131760, “4-Phenyl-1,3-thiazole-2-amines as scaffolds for new antileishmanial agents” (The Journal of Venomous Animals and Toxins Including …, 2018).

System: VERO cells
Assay: Cytotoxicity assay in Vero cells (MTT)
Format: cell-based, African green monkeys
Conditions: CC50 VERO cells / IC50 L. amazonensis
Protocol: Cytotoxicity was also evaluated using Vero cells, a monkey kidney cell line obtained from the American Type Culture Collection (ATCC CCL-81; Manassas, VA). The cytotoxicity was determined by the 3-(4,5dimethylthiazol- 2-yl)-2,5-diphenyltetrazolium bromide (MTT) method according to a previously described procedure.
In all cases, the CC50 was calculated as described as in the Antileishmanial assay Section.
Selectivity indexes (SI) were calculated by dividing CC50 against each mammalian cell line by the IC50 against L. amazonensis (CC50/IC50).

CCc1ccc(-c2csc(N)n2)cc1 [Compound 3]
SI: 26.11
